Reference: PubChem BioAssay AID504786 (Drosophila RNAi Screening Center, 2011)

- Purpose: 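Knock-downs reducing HIF reporter induction by the iron chelator DFO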 (primary screen)
- Cell system: Drosophila S2 cells with a stable HIF luciferase reporter
- Reagent: long dsRNA against Drosophila genes, about 0.2 µg dsRNA per well of a 384-well plate
- Duration: three days of knock-down, then 20 h of DFO before reading
- Treatment: desferrioxamine (DFO) at 100 µM, an iron chelator that mimics hypoxia, for 20 h
- Read-out: 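HIF reporter luminescence in cells given 100 µM DFO for 20 h, using the mouse ldh-a hypoxia-response element, scored as per-plate z-scores; higher means greater loss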
- Scale: z-score: higher = stronger loss of HIF reporter signal
The screen tested about 21,000 reagents; shown is a random part of those with a known target gene and a result. 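Primary screen; positive scores mean lost reporter signal, so the sign may be inverted from the usual convention.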 Names joined by + are all predicted targets of the reagent.

Gene	amplicon	z-score, replicate 1	z-score, replicate 2	z-score, replicate 3	z-score, replicate 4
CG34353	DRSC14493	-0.5	-0.1		
CG34353	DRSC14517	-0.6	0.6		
CG34353	DRSC14563	-0.3	-0.3		
CG34353	DRSC15837	-0.3	-0.1		
CG6785	DRSC02993	0	-0.4		
CG32055	DRSC10666	-0.2	-0.3		
FRG1 (FSHD region gene 1)	DRSC10648	-0.3	-0.1		
CG6701	DRSC07007	-0.3	-0.5		
AOX2 (Aldehyde oxidase 2)	DRSC15338	-0.3	-0.1		
CG5969	DRSC11789	-0.3	1.8		
CG3280 (retired record)	DRSC10356	0	0.1		
CG7611	DRSC11840	-0.3	-0.2		
Drice (Death related ICE-like caspase)	DRSC16715	-0.4	-0.5		
Blos3	DRSC09573	0.1	-0.1		
CG34268	DRSC07874	-0.3	-0.4		
CG34398	DRSC01052	-0.2	0.2		
CG34398	DRSC02510	0.9	1.4		
CG34398	DRSC02511	-0.1	0.3		
CG34398	DRSC03228	0	0.1		
CG15468	DRSC18051	-0.3	-0.3		
NetA (Netrin-A)	DRSC20261	-0.3	-0.4		
CG13711	DRSC08320	-0.4	0.4		
Rm62	DRSC12365	1.8	1.9		
Taf9 (TBP-associated factor 9)	DRSC20326	1.4	0.8		
CG3119	DRSC00569	0.1	0.8		
CG4597	DRSC10432	-0.2	-0.4		
fh (frataxin)	DRSC18430	0	0.5		
PPO2 (Prophenoloxidase 2)	DRSC07102	-0.3	-0.2		
HDAC11 (Histone deacetylase 11)	DRSC14280	0	0.2		
lambdaTry	DRSC06137	-0.2	-0.4		
CG6959	DRSC16151	-0.4	-0.4		
EndoU (Endoribonuclease U-specific)	DRSC15472	-0.2	0		
CG42375 + CG9288	DRSC16468	-0.3	-0.3		
CG1231	DRSC08267	-0.3	-0.3		
Obp73a (Odorant-binding protein 73a)	DRSC09907	-0.2	0		
beta4GalNAcTB (beta1,4-N-acetylgalactosaminyltransferase B)	DRSC14869	-0.5	-0.4		

4 entries already listed, arranged by “z-score, replicate 2”, highest first:
Gene	amplicon	z-score, replicate 1	z-score, replicate 2	z-score, replicate 3	z-score, replicate 4
HDAC11 (Histone deacetylase 11)	DRSC14280	0	0.2		
PPO2 (Prophenoloxidase 2)	DRSC07102	-0.3	-0.2		
lambdaTry	DRSC06137	-0.2	-0.4		
CG6959	DRSC16151	-0.4	-0.4		

Additional results follow:
Gene	amplicon	z-score, replicate 1	z-score, replicate 2	z-score, replicate 3	z-score, replicate 4
Rhp (Rhophilin)	DRSC20279	-0.3	-0.5		
Pal2 (Peptidyl-alpha-hydroxyglycine-alpha-amidating lyase 2)	DRSC04507	-0.2	-0.5		
Nup37 (Nucleoporin 37kD)	DRSC14419	-0.4	-0.6		
wda (will decrease acetylation)	DRSC15579	-0.5	0.5	0.3	0.1
Syx6 (Syntaxin 6)	DRSC07032	-0.3	-0.6		
Fkbp12 (FK506-binding protein 12kD)	DRSC07425	-0.4	-0.8		
Eaf6 (Esa1-associated factor 6)	DRSC09901	-0.3	-1		
Cpr97Eb (Cuticular protein 97Eb)	DRSC15123	-0.5	-0.5		
Uqcc1 + CG9948	DRSC09690	-0.2	2.7		
LRP1 (LDL receptor protein 1)	DRSC07238	-0.3	-0.4		
Nepl9 (Neprilysin-like 9)	DRSC02255	-0.1	-0.3		
Vps51 (Vacuolar protein sorting 51)	DRSC06519	-0.2	-0.6		
Acbp5 (Acyl-CoA binding protein 5)	DRSC10548	-0.4	-0.3		
Ndae1 (Na[+]-driven anion exchanger 1)	DRSC00975	0.3	1.2		
Ndae1 (Na[+]-driven anion exchanger 1)	DRSC02770	-0.3	-0.2		
cuff (cutoff)	DRSC06315	-0.1	-0.3		
CG9970	DRSC08644	-0.3	-1		
Ddr (Discoidin domain receptor)	DRSC00922	-0.4	-0.5		
Ddr (Discoidin domain receptor)	DRSC00923	-0.4	-0.2		
Ddr (Discoidin domain receptor)	DRSC02150	0	-0.1		
Ddr (Discoidin domain receptor)	DRSC03229	-0.3	-0.5	-0.3	-0.2
Ddr (Discoidin domain receptor)	DRSC03230	-0.2	-0.3		
CG31102	DRSC14260	-0.4	-1		
CG13168	DRSC06295	-0.1	-0.7		
CG13999	DRSC02331	-0.4	-0.4		
cni (cornichon)	DRSC03512	0.7	-0.3		
Vha68-2 (Vacuolar H[+] ATPase 68 kDa subunit 2)	DRSC02721	-0.4	-0.6		
CG10104	DRSC05964	0	0		
CG8031	DRSC16364	-0.2	-0.2		
Nin (Ninein)	DRSC02007	-0.2	-0.2		
GluRS-m (Glutamyl-tRNA synthetase, mitochondrial)	DRSC10431	-0.2	-0.2		
CG16786	DRSC04281	-0.1	-0.6		
CG15169	DRSC02470	-0.3	-0.2		
Su(H) (Suppressor of Hairless)	DRSC03445	-0.3	-0.4		
Notum	DRSC09959	-0.2	0.1		
CG3505	DRSC15489	-0.3	-0.5		
NFAT (NFAT nuclear factor)	DRSC18991	0.5	0.4		
NFAT (NFAT nuclear factor)	DRSC19393	0	0.5		
hts (hu li tai shao)	DRSC07629	-0.5	-0.7		
CG2111	DRSC18205	-0.3	0.1		
CG3386	DRSC08566	-0.3	-0.2		
CG3857	DRSC18542	-0.2	-0.7		
TTLL1A (Tubulin tyrosine ligase-like 1A)	DRSC20121	-0.2	-0.3		
CG15219	DRSC03715	-0.3	-0.3		
mino (minotaur)	DRSC14132	-0.3	-0.4		
Saysd1 (SAYSVFN motif domain containing 1)	DRSC14664	-0.3	-0.5		
CG5274	DRSC11774	-0.3	-0.5		
